Results from US11987600B2, “Contraceptive use of triterpenoids” (The Regents of the University of California, priority 2017, dated 2024).
At least one compound was matched to its structure with a doubt left.

Columns and labels:
CatSper [1] = experiment: Electrophysiology recordings of inward monovalent currents through CatSper (ICatSper) of human sperm; assay type: cell-based; details: compound alone, human spermatozoa
Description: 2-AG hydrolysis by monoacyl lipases, such as ABHD2, is required for CatSper activation. The plant triterpenoid pristimerin was reported to inhibit the activity of related monoacylglycerol lipase (MAGL) (9). […] To test this hypothesis, human spermatozoa were stimulated with pristimerin, followed by exposure to either a mixture of pristimerin and P4, or to a mixture of pristimerin and PregS. In these experiments we analyzed inward monovalent currents through CatSper (ICatSper) of human sperm. Electrophysiology recordings were performed as described in (14). […] Compared to stimulation with P4 or PregS alone, the ICatSper stimulation was reduced by 63% (pristimerin and P4) and by 48% (pristimerin and PregS) (7).
Another pharmacologically active plant triterpenoid, which affects sperm functions when orally administered to rats, is lupeol (8). Lupeol is similar in structure to steroid hormones. […] However, administration of lupeol with P4 or PregS led to an even stronger inhibition of ICatSper than pristimerin. Compared to CatSper stimulation elicited by P4 or PregS alone, CatSper currents were reduced by 71% and 68%, respectively, in combination with P4 or PregS (7).

CatSper [2] = experiment: Calcium imaging of steroid-activated CatSper activation in human spermatozoa; assay type: cell-based
human sperm [3] = experiment: Sperm hyperactivation: curvilinear velocity (VCL) of human sperm; assay type: cell-based
Description: (§1) Pristimerin and lupeol decrease sperm hyperactivation in the presence of P4. Hyperactivated sperm motility is characterized by a highly asymmetrical bending of the sperm tail due to a CatSper-mediated rise in flagellar calcium concentration (15). Curvilinear velocity (VCL) is the average velocity of the sperm head through the sperm trajectory, which increases during capacitation. A CatSper-mediated calcium rise promotes hyperactivation and makes the sperm trajectory less linear, which results in an increase of VCL. Capacitation increases CatSper activity, which results in a higher percentage of sperm with hyperactivated motility. Thus, capacitated spermatozoa tend to have higher VCL values than non-capacitated. Since both P4 and PregS activate CatSper, while pristimerin and lupeol inhibit it, we explored whether VCL values of human sperm are affected in the presence of plant triterpenoids or steroid hormones. As expected, neither of the compounds changed VCL values of non-capacitated sperm cells. […] Stimulating capacitated sperm with PregS in combination with pristimerin or lupeol decreased VCL by 18% and 9%, respectively, compared to sperm, which were treated with PregS alone. […] Since CatSper is not only required for hyperactivation but also for basal motility, we sought to determine whether pristimerin and lupeol also affect sperm motility.

human sperm [4] = experiment: Sperm motility: number/percentage of motile spermatozoa; assay type: cell-based
Description: as §1

[5] = tested on: monoacylglycerol lipase (MAGL); details: inhibits hydrolysis of 2-AG to arachidonic acid and glycerol; cited from earlier work

## COC(=O)[C@]1(C)CC[C@]2(C)CC[C@]3(C)C4=CC=C5C(=CC(=O)C(O)=C5C)[C@]4(C)CC[C@@]3(C)[C@@H]2C1 [pristimerin]
CatSper [1]
  effect on basal ICatSper: did not affect basal ICatSper
CatSper [2]
  block of steroid-activated CatSper activation: dose-dependently blocked
Human sperm [3]; capacitated spermatozoa, compound alone
  change (increase) of VCL: remained unchanged
Human sperm [3]; non-capacitated sperm, PregS in combination with compound
  change of VCL values: remained unchanged
Human sperm [4]; capacitated and non-capacitated, compound alone
  change in number of motile spermatozoa: remained unchanged
Human sperm [4]; capacitated or non-capacitated sperm, co-stimulation with PregS
  reduction of motile sperm: did not result in a significant reduction
Human sperm [4]; non-capacitated cells, P4 co-applied with compound
  change of percentage of motile sperm: did not change
[5]
  monoacylglycerol lipase inhibition: acts as a monoacylglycerol lipase inhibitor
